Assay results from patent publication US20190183900A1, “COMPOSITION FOR PROLIFERATION, DIFFERENTIATION PROMOTION, OR SENESCENCE INHIBITION OF STEM CELLS, CONTAINING JAK1 INHIBITOR AS ACTIVE INGREDIENT” (UNIVERSITY OF ULSAN FOUNDATION FOR INDUSTRY COOPERATION, priority 2016, published 2019).
At least one compound was matched to its structure with a doubt left.

What was measured:
stem cells [1] = assay: Western blotting of senescence, stemness, proliferation and TLR3 signaling proteins; format: cell-based; settings: JAK1 inhibitor pretreated 2 hours before poly IC 1 ug/ml, 2 days after poly IC
stem cells [2] = assay: real time PCR of senescence, stemness, proliferation and TLR3 signaling genes; format: cell-based; settings: pre-treatment before poly IC
Method: The present inventors have confirmed the expression of proteins involved in proliferation and differentiation promotion of stem cell and stemness increase according to tofacitinib treatment using real time PCR. For this, cells were treated with TRIzol reagent to lyse the cells, and treated with chloroform to separate the aqueous solution layer containing the RNA. The separated aqueous solution was treated with isopropanol to precipitate RNA and centrifuged to extract RNA only. […] Real-time PCR was performed using the CFX Connect Real-Time PCR Detection System (Bio-rad) and primers used were shown in Table 1. Relative mRNA expression levels were analyzed using the comparative threshold cycles (2-^Ct) method.

N#CC[C@H](C1CCCC1)n1cc(-c2ncnc3[nH]ccc23)cn1 [ruxolitinib]
expression of proteins associated with senescence (PCNA), stemness (EZH2, BMI-1), proliferation (survivin, CyclinD1) (stem cells [1]): less decreased | mRNA expression of the protein associated with senescence (PCNA), stemness (EZH2, BMI-1) and proliferation (survivin, CyclinD1) (stem cells [2]): less decreased
